According to publication PMC11995267:
Residue numbers refer to the chain shown, from its start. Numbers in names are those of the source. These are yes or no findings as the source states them, for the method shown. In cells and extracts the contact can be indirect. Some results given as binding are weak or reduced against the parent protein; the word gives no strength. Sequences can lack the tags named with a protein. Blank lines part the entries; values can stand above or below the binder they belong to.

What was measured:
[1] = target: T1, Elp1-c-Myc (S. cerevisiae) (UniProt Q06706); assay: co-IP; Elp1-c-Myc immobilised on antibody-coupled Dynabeads; 8 mg total yeast protein in B60 buffer (50 mM HEPES-KOH pH 7.3, 60 mM KOAc), 4°C overnight; Kti12-HA detected by Western blot
T1 sequence: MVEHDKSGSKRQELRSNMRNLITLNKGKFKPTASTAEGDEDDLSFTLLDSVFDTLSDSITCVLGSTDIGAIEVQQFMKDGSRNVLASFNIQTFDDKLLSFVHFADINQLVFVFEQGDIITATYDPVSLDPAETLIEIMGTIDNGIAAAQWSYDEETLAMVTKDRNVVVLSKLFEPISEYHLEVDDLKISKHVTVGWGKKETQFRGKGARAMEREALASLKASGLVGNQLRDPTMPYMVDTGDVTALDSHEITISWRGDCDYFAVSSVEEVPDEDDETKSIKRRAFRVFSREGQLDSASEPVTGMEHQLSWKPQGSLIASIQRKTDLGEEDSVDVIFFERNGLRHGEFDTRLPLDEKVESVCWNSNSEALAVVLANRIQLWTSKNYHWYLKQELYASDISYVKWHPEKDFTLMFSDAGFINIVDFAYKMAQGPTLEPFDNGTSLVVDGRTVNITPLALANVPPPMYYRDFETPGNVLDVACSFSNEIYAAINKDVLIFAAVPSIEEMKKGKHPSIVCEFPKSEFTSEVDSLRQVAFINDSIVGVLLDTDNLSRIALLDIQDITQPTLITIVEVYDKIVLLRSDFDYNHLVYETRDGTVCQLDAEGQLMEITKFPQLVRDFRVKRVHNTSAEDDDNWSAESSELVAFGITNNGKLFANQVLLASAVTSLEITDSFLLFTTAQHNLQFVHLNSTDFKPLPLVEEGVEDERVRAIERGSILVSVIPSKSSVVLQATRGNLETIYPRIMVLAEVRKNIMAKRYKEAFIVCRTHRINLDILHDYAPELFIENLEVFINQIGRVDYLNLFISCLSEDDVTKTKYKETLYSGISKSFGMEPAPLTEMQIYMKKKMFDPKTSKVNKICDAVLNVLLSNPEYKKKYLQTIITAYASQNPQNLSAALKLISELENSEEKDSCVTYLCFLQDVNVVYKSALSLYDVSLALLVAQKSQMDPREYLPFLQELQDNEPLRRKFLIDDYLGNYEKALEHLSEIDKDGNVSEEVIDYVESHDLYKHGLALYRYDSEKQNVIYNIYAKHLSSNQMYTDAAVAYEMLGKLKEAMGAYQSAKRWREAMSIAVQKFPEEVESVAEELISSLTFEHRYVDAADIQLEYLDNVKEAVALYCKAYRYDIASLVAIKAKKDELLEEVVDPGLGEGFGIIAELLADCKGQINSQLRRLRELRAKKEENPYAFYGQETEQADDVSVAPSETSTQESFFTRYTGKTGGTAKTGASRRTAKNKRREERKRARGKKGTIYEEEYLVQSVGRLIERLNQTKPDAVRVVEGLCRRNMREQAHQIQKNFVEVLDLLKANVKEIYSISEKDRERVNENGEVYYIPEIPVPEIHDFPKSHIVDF

[2] = target: T1, Elp1-c-Myc (S. cerevisiae); assay: co-IP; first step of a sequential IP: 10 mg extract in IPP100 buffer (10 mM Tris-HCl pH 8.0, 100 mM NaCl) with anti-c-Myc Dynabeads, 30 min at room temperature, washed with IPP300 (300 mM NaCl); with or without UV irradiation; Western blot
[3] = target: T1, Elp1-c-Myc (S. cerevisiae); assay: pull-down; Elp1-c-Myc immune-precipitated from kti12Δ extract and held on beads; 5 μM recombinant Kti12 pre-incubated mock or with 2 mM ATP, ADP or AppNHp, with or without 3 μM bulk yeast tRNA; IPP100 buffer, 60 min at 4°C; Western blot; only the binder purified

B1: Kti12-HA (wild type) (protein, UniProt P34253 1-313)
chain: MPLVLFTGYPCSGKTTLAKHLVQLLQSKIDATPSLSKYSITYHSDESLGIKHSDYITSQDERKLRSEIISAVKRDLSKNKIVIVDSLNYIKGFRYQLHCEVKNLSTTFCVIQTLCPPETIFEWNKTSNPNPWEPELLNQLIQRYEEPNSSNRWDSPLFAILTPQDNITDYIDDICKVVFQTSKSAKNSGHNDPLSKGLQKPNSATVLKPASQSNFIQVLDIETSKIIKTIMNHIKSLTSIGGVSNGTRVIVSEGITDINDDGCFFVDLPIGNVVTLAQLQRLKRQFINFNKLRDIDQDRIGPLFADYLNKNLN
binding [1]: binds
binding [2]: binds

B2: Kti12-HA K228A (protein, UniProt P34253 1-313)
chain: B1 chain with K228A
binding [1]: binds

B3: recombinant Kti12 (wild type), His-tagged (protein, UniProt P34253 1-313)
chain: B1 chain
binding [3]: binds

B6: Kti12-HA D220A (protein, UniProt P34253 1-313)
chain: B1 chain with D220A
binding [1]: binds

Now from value to binder:

binding [1]: binds
B4: Kti12-HA S224R (protein, UniProt P34253 1-313)
chain: B1 chain with S224R

binding [1]: binds
B5: Kti12-HA K235A (protein, UniProt P34253 1-313)
chain: B1 chain with K235A

binding [1]: binds
B7: Kti12-HA K225A (protein, UniProt P34253 1-313)
chain: B1 chain with K225A

binding [1]: binds
B8: Kti12-HA K283A (protein, UniProt P34253 1-313)
chain: B1 chain with K283A

binding [1]: binds
B9: Kti12-HA R284A (protein, UniProt P34253 1-313)
chain: B1 chain with R284A

binding [1]: binds
B10: Kti12-HA R281A (protein, UniProt P34253 1-313)
chain: B1 chain with R281A
